# Source: US6420430B1, “Use of inhibitors of the sodium-hydrogen exchanger for preparing a medicament for preventing age-related disorders, and for prolonging life” (Aventis Pharma Deutschland GmbH, priority 1998, dated 2002)
# Test system: WKY rats
# Experiment: Interim analysis after 30 months: organ weights (heart, ventricles, kidneys, spleen)
# Assay type: in vivo, rat
# Conditions: p<0.05 versus placebo
# Experimental: The interim analysis was carried out after 80% of the placebo-treated animals had died; this was the case after 30 months. 10 animals of each group were selected at random and anesthetized (hexobarbital, 80 mg·kg^−1, i.p.). Blood samples were then taken, and the thoracic aortae and the hearts were prepared and biochemically and/or functionally examined (Linz et al., 1997). In accordance with the method described by Langendorff, the hearts were perfused with an oxygen-saturated (95% O2, […]), non-circulating Krebs-Henseleit solution of the following composition (mmol/l): NaCl, 118; KCl, 4.7; CaCl2, 2.5; MgSO4, 1.6; NaHCO3, 24.9; KH2PO4, 1.2; glucose, 5.5; Na-pyruvate, 2.0, using a perfusion pressure of 60 mm Hg. The pressure in the left ventricle and the pulse frequency of the heart were measured using a balloon catheter. The coronary blood flow was determined using an electromagnetic flow gage. After a washing phase of 5 minutes, 1 ml of the coronary effluent was taken off for measuring the lactate concentrations and the lactate dehydrogenase and creatine kinase activities. The weights of the entire heart and the weights of the left and the right ventricle were then determined. The left ventricle was fixed in 10% strength neutral buffered formalin solution and embedded in paraffin for light-microscopic examination.
structure (smiles),measurement,value
"CC(C)c1ccc(C(=O)N=C(N)N)cc1S(C)(=O)=O.CS(=O)(=O)O [Cariporide, cariporide]",weights of the spleens,255±13 mg/100 g of BW
